PubChem BioAssay AID504791, Drosophila RNAi Screening Center – 2011
Screen: 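Factors in Argonaute-based small RNA production and activity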 (primary screen). System: Drosophila S2-derived reporter cells. Reagent: long dsRNA against Drosophila genes, about 150-250 ng dsRNA per well (siRNA assay); about 80-120 ng (miRNA assay). Timing: about 5 days (siRNA assay); about 4 days (miRNA assay). Treatment: copper sulfate induction of reporters: 25 µM (siRNA assay); 200 mM stated (miRNA assay), 1-2 days before reading. Measurement: 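Per-well ratio of Renilla over firefly light, expressed relative to that plate's average ratio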. Call rule: 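First-pass picks had plate-scaled ratios over 1.5 for the siRNA assay, over 1.6 for the miRNA assay, or under 0.6; two distinct dsRNAs had to score alike on retest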.
The deposit covers about 23,000 reagents; below is an unselected part of those that have a named target and a result. Of all reagents, 199 (0.86%) were called active. 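Plate-scaled ratios behind the calls are not deposited; printed light signals are raw; many rows marked increased or decreased are still called inactive.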 Entries without a mark were called inactive. Names joined by + are all predicted targets of the reagent. No sequences are given here. Not stated in the record: the direction of the score.

gene,amplicon,stable siRNA reporter change,miRNA reporter change,"stable assay Renilla, run 1 (luminescence)","stable assay firefly, run 1 (luminescence)"
fj (GeneID 37089),DRSC07619,,,6104,3.26e5
CG10205 (GeneID 36650),DRSC05979,,,5971,3.68e5
RpS10a (GeneID 43321),DRSC14161,,,7195,3.87e5
Rpn13 (GeneID 36545),DRSC06379,,,4123,1.85e5
pico (GeneID 33003),DRSC19430,,,5219,3.57e5
Act87E (GeneID 48632),DRSC22578,,,4283,3.88e5
CG17140 + CG17139,DRSC02585,,,7491,3.84e5
CG17140 + CG17139,DRSC02586,,,7816,3.81e5
CG9171 (GeneID 33807),DRSC03152,,,37259,5.28e5
CG9171 (GeneID 33807),DRSC21813,,,8963,4.12e5
Osbp (GeneID 42985),DRSC16779,,,10454,3.36e5
norpA (GeneID 31376),DRSC18806,,,9877,4.61e5
CG8245 (GeneID 35503),DRSC04901,,,5708,4.86e5
CG7912 (GeneID 43561),DRSC16343,,,6046,3.51e5
IFT54 (GeneID 41739),DRSC15469,,,6479,4.65e5
fat-spondin (GeneID 36919),DRSC07617,,,10163,3.12e5
papi (GeneID 33401),DRSC00693,,,14413,8.09e5
Ephrin (GeneID 43799),DRSC17165,,,6183,3.00e5
CG30109 + CG30108,DRSC05674,,,4731,3.66e5
CG14406 (GeneID 32421),DRSC19592,,,5240,4.37e5
Rint1 (GeneID 38807),DRSC11010,,,6740,2.65e5
nAChRalpha2 (GeneID 42919),DRSC17009,,,8362,2.67e5
Prp38 (GeneID 35934),DRSC07060,,,10112,4.89e5
dnt (GeneID 35207),DRSC03522,,,3.63e5,1.22e6
Rad23 (GeneID 43785),DRSC17167,,,8450,4.62e5
caly (GeneID 36794),DRSC07182,,,11358,4.17e5
CG3776 (GeneID 37996),DRSC04417,,,62276,1.20e6
CG12170 (GeneID 40692),DRSC12199,,,4159,3.02e5
CG10804 (GeneID 31317),DRSC17764,,,7619,4.75e5
CG5756 (GeneID 37064),DRSC06950,,,6527,3.32e5
CG10646 (GeneID 39426),DRSC09764,,,4371,3.89e5
CG31683 + CG18858,DRSC02703,,,6870,3.94e5
Karl (GeneID 32131),DRSC19883,,,8711,5.41e5
CG11037 (GeneID 40317),DRSC11631,,,6682,3.51e5
CG10086 (GeneID 40920),DRSC14183,,,6942,3.79e5
wwk (GeneID 34886),DRSC01941,,,7530,4.44e5
Stt3A (GeneID 33082),DRSC20514,,,7919,4.16e5
Yip1d1 (GeneID 34696),DRSC02166,,,6846,4.30e5
CG10713 (GeneID 39508),DRSC09786,,,5272,2.85e5
CG9609 (GeneID 32663),DRSC20199,reporter ratio lowered past the hit cutoff,,7616,7.41e5
Syx13 (GeneID 39485),DRSC09836,,,5790,3.02e5
CG10654 (GeneID 39428),DRSC09767,,,7119,4.64e5
cas (GeneID 44018),DRSC12373,,,7039,4.54e5
CG5157 (GeneID 39771),DRSC10488,,,8206,3.87e5
CG34125 (GeneID 4379886),DRSC00850,,,5295,4.50e5
ClC-b (GeneID 36381),DRSC07220,,,5927,3.21e5
Ptx1 (GeneID 43664),DRSC16804,,,6043,3.53e5
CG2574 (GeneID 32190),DRSC19862,,,5823,4.75e5
Sfp93F (GeneID 8673963),DRSC13505,,,4895,5.89e5
Ube4B (GeneID 34699),DRSC03277,,,80852,3.59e5
LysP (GeneID 38129),DRSC08676,,,6471,3.81e5
Mtmr6 (GeneID 37707),DRSC04046,,,6944,3.63e5
Smug (GeneID 42078),DRSC15762,,,7155,3.36e5
Cyp9h1 (GeneID 36412),DRSC07391,,,4520,2.85e5

The list goes on (2 carried over from the part before).
gene,amplicon,stable siRNA reporter change,miRNA reporter change,"stable assay Renilla, run 1 (luminescence)","stable assay firefly, run 1 (luminescence)"
Smug (GeneID 42078),DRSC15762,,,7155,3.36e5
Cyp9h1 (GeneID 36412),DRSC07391,,,4520,2.85e5
CG3339 (GeneID 43295),DRSC13821,,,4471,3.54e5
CG3339 (GeneID 43295),DRSC15479,,,6531,3.91e5
ms(3)76Cc (GeneID 40142),DRSC11071,,,7608,4.23e5
ms(3)76Cc (GeneID 40142),DRSC21630,,,8735,4.26e5
CG11019 (retired record) (GeneID 50472),DRSC02117,,,7566,4.03e5
Cht7 (GeneID 38370),DRSC08538,,,8719,5.19e5
Cht7 (GeneID 38370),DRSC21783,,,10067,5.12e5
CG12768 (GeneID 40513),DRSC11680,,,5498,2.68e5
CG12768 (GeneID 40513),DRSC23215,,,3995,2.88e5
CG12768 (GeneID 40513),DRSC28549,,reporter ratio raised past the hit cutoff,,
kra (GeneID 40680),DRSC12320,,,10584,5.00e5
mRpL44 (GeneID 40656),DRSC12306,,,6519,3.84e5
CG13919 (GeneID 38200),DRSC08388,,,7038,3.28e5
CG15423 (GeneID 33616),DRSC00437,,,6722,3.15e5
CG14763 (GeneID 35757),DRSC06497,,,6706,3.53e5
nAChRbeta1 (GeneID 38545),DRSC08097,,,4043,3.27e5
nAChRbeta1 (GeneID 38545),DRSC08728,,,7218,4.20e5
CG32055 (GeneID 39188),DRSC10666,,,8227,5.24e5
Dph3 (GeneID 41352),DRSC14923,,,6514,4.16e5
Ir48c (GeneID 36257),DRSC06154,,,5059,2.82e5
DIP-alpha (GeneID 31322),DRSC17891,,,4924,4.93e5
DIP-alpha (GeneID 31322),DRSC17892,,,4464,2.16e5
DIP-alpha (GeneID 31322),DRSC23275,,,3856,2.82e5
ITP (GeneID 37921),DRSC04222,,,7578,4.19e5
CG15478 (GeneID 31679),DRSC18057,,,5772,3.79e5
Zip48C (GeneID 36273),DRSC06314,,,6907,3.60e5
sug (GeneID 36424),DRSC06855,,,8500,3.58e5
CG13771 (GeneID 33933),DRSC02277,,,7890,3.49e5
cnn (GeneID 36491),DRSC05422,,,5431,3.66e5
cnn (GeneID 36491),DRSC07596,,,6591,4.53e5
CG2150 (GeneID 43745),DRSC15420,,,7298,4.26e5
CG17991 (GeneID 43279),DRSC15294,,,5507,3.46e5
GLS (GeneID 36396),DRSC07261,,,7226,3.72e5
anchor (GeneID 39965),DRSC10861,,,9561,4.27e5
CG32388 (GeneID 192611),DRSC08861,,,5034,3.61e5
mars (GeneID 36498),DRSC06656,,,5144,4.01e5
CG10182 (GeneID 42780),DRSC14202,,,6055,3.71e5
L (GeneID 36609),DRSC06666,,,5574,3.98e5
L (GeneID 36609),DRSC06668,,,6591,2.98e5
elgi (GeneID 39735),DRSC10242,,,8951,3.10e5
Rim2 (GeneID 33350),DRSC00073,,,4922,3.99e5
Rim2 (GeneID 33350),DRSC00520,,,11418,6.13e5
Rim2 (GeneID 33350),DRSC22699,,,3775,3.58e5
CG34296 (GeneID 5740662),DRSC13961,,,7755,4.63e5
CG14757 (GeneID 35797),DRSC06492,,,6936,4.05e5
CG14131 (GeneID 39328),DRSC10135,,,5943,4.20e5
CG14014 (GeneID 33784),DRSC02345,,,7235,5.42e5
Tango11 (GeneID 246596),DRSC03890,,,5630,5.67e5
Tango11 (GeneID 246596),DRSC03892,,,6223,5.49e5
CG7423 (GeneID 32894),DRSC20044,,,7531,3.97e5
Alms1b + Alms1a,DRSC18559,,,8277,5.38e5
CG17168 (GeneID 3354996),DRSC20904,,,6968,4.38e5
